Experimental data taken from patent US10858410B2, “Glycosylated peptides with pseudoproline residues and having enhanced half-lives and ability to cross the blood brain barrier” (ARIZONA BOARD OF REGENTS ON BEHALF OF THE UNIVERSITY OF …, priority 2015, dated 2020).

Target: T1, human PAC1 receptors (Homo sapiens, UniProt P41586)
T1 construct: host or cells: CHO (clonal line PAC1-CHO)
T1 sequence (P41586 21-468): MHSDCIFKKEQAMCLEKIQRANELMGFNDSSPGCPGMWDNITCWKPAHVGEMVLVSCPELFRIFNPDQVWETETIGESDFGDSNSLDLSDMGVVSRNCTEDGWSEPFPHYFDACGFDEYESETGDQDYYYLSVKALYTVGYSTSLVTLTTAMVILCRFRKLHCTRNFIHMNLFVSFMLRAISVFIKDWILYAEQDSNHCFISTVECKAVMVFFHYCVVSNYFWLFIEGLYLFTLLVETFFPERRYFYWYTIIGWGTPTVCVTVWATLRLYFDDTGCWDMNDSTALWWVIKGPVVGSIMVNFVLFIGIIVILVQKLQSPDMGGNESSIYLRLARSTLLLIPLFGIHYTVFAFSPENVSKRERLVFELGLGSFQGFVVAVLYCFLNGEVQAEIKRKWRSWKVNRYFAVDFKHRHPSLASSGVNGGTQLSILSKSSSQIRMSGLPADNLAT
Assay: FLIPR calcium flux, agonist mode, PAC1-CHO cells
Type: cell-based

With `CC[C@H](C)[C@H](NC(=O)CNC(=O)[C@H](CC(=O)O)NC(=O)[C@H](CO)NC(=O)[C@@H](N)Cc1c[nH]cn1)C(=O)N[C@@H](Cc1ccccc1)C(=O)N[C@H](C(=O)N[C@@H](CC(=O)O)C(=O)N[C@@H](CO)C(=O)N[C@@H](Cc1ccc(O)cc1)C(=O)N[C@@H](CO)C(=O)N[C@@H](CCCNC(=N)N)C(=O)N[C@@H](Cc1ccc(O)cc1)C(=O)N[C@@H](CCCNC(=N)N)C(=O)N[C@@H](CCCCN)C(=O)N[C@@H](CCC(N)=O)C(=O)N[C@@H](CCSC)C(=O)N[C@@H](C)C(=O)N[C@H](C(=O)N[C@@H](CCCCN)C(=O)N[C@@H](CCCCN)C(=O)N[C@@H](Cc1ccc(O)cc1)C(=O)N[C@@H](CC(C)C)C(=O)N[C@@H](C)C(=O)N[C@@H](C)C(=O)N[C@H](C(=O)N[C@@H](CO[C@@H]1O[C@H](CO)[C@@H](O)[C@H](O)[C@H]1O)C(N)=O)C(C)C)C(C)C)[C@@H](C)O` [PACAP1-27-S-G] as the compound, how does the “agonist activity at PAC1 (in words)” value read?
Its value is “potent, efficacious agonist activity”.
